Experimental findings from publication PMC2686717 are described below.

Protein sequences, listed by entry. Tags and fused reporters are not part of them.
UniProt P28159: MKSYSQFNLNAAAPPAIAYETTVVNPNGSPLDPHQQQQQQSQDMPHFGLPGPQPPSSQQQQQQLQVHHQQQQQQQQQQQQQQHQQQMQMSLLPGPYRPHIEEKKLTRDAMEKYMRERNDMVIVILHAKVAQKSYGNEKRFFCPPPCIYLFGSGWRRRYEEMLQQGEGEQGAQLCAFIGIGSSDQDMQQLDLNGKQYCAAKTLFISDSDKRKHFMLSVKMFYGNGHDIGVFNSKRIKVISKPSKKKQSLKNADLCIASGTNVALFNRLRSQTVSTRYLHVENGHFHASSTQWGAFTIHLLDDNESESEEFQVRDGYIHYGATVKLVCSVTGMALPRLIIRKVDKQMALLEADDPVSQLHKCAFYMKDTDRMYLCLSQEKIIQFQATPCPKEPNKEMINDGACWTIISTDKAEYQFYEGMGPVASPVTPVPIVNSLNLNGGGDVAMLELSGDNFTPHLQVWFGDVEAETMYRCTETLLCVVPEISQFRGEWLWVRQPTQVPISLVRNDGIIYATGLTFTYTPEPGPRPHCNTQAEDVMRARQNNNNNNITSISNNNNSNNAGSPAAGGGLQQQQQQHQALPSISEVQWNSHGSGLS

These are yes or no findings as the source states them, for the method shown. In cells and extracts the contact can be indirect. Where a sequence is shown, tags or fusion partners need not be part of it.

This assay has as its target 6x-His tagged Suppressor of Hairless (Su(H)) protein (Drosophila) (UniProt P28159). Kind of assay: pull-down; 6xHis-Su(H) bound to Ni-resin spin columns; bacterial lysates with 6xMyc-tagged proteins passed through; 50 mM sodium phosphate pH 8.0, 150 mM NaCl, 20 mM imidazole; eluted with 50 mM Tris pH 8.0, 10 mM EDTA; Western blot with anti-6xHis or anti-myc; 'partially purified recombinant bacterial proteins'; only the target purified. (In general: A western blot detects proteins with antibodies after separation by electrophoresis.)

B1: 6x-Myc tagged Achaete (Ac) (protein, UniProt P10083 1-201)
chain: MALGSENHSVFNDDEESSSAFNGPSVIRRNARERNRVKQVNNGFSQLRQHIPAAVIADLSNGRRGIGPGANKKLSKVSTLKMAVEYIRRLQKVLHENDQQKQKQLHLQQQHLHFQQQQQHQHLYAWHQELQLQSPTGSTSSCNSISSYCKPATSTIPGATPPNNFHTKLEASFEDYRNNSCSSGTEDEDILDYISLWQDDL
As to B1, the binding entry is on record as “no binding”.
